{"source": "patent US8648071B2", "about": "“Hydrazonamide compounds that modulate Hsp90 activity” (Synta Pharmaceuticals Corp., priority 2008, dated 2014)", "note": "Some entries share one result that the patent states for a list of compounds."}
{"tested_on": "Hsp90", "test": "IC50 range of compounds of the invention (Table 2; Example 4B Method 2)", "type": "cell-based, human", "settings": "text: IC50 range for Her2 degradation; table title: inhibition of Hsp90; Method 2: MV-4-11 cells, 72 hours, Cell Counting Kit-8", "units": {"IC50": "µM"}}
{"smiles": "CC(C)c1cc(/C(=N/N)Nc2ccc(N3CCOCC3)nc2)c(O)cc1O", "note": "[Compound 1, (Z)-2,4-dihydroxy-5-isopropyl-N-(6-morpholinopyridin-3-yl)benzohydrazonamide]", "IC50": "≤ 20"}
{"smiles": "CC(C)c1cc(/C(=N/NS(C)(=O)=O)Nc2ccc3c(c2)OCO3)c(O)cc1O", "note": "[Compound 4, (Z)-N-(benzo[d][1,3]dioxol-5-yl)-2,4-dihydroxy-5-isopropyl-N′-(methylsulfonyl)-benzohydrazonamide]", "IC50": "> 50"}
{"smiles": "CC(C)c1cc(/C(=N/NC(=O)c2ccccc2)Nc2ccc3c(c2)OCO3)c(O)cc1O", "note": "[Compound 3, (Z)-N-(benzo[d][1,3]dioxol-5-yl)-N′-benzoyl-2,4-dihydroxy-5-isopropylbenzohydrazonamide]", "IC50": "≤ 20"}
{"smiles": "CC(C)c1cc(/C(=N/NS(=O)(=O)c2ccccc2)Nc2ccc3c(c2)OCO3)c(O)cc1O", "note": "[Compound 5, (Z)-N-(benzo[d][1,3]dioxol-5-yl)-2,4-dihydroxy-5-isopropyl-N′-(phenylsulfonyl)benzo-hydrazonamide]", "IC50": "> 50"}
